Reference: patent publication US9970152B2, “Method for functionalizing a solid material surface with self assembling or self aggregating cyclodextrins and products thereof” (Aalborg Universitet, priority 2010, dated 2018)

Assay: Adsorption of CD onto PP non-woven fiber, measured by phenol assay
Conditions: 25 v/v % EtOH/water, at 6.43 mg/ml

Which “maximum coating in weight percent” value does the source give for `OC[C@H]1O[C@@H]2O[C@H]3[C@H](O)[C@@H](O)[C@@H](O[C@H]4[C@H](O)[C@@H](O)[C@@H](O[C@H]5[C@H](O)[C@@H](O)[C@@H](O[C@H]6[C@H](O)[C@@H](O)[C@@H](O[C@H]7[C@H](O)[C@@H](O)[C@@H](O[C@H]8[C@H](O)[C@@H](O)[C@@H](O[C@H]1[C@H](O)[C@H]2O)O[C@@H]8CO)O[C@@H]7CO)O[C@@H]6CO)O[C@@H]5CO)O[C@@H]4CO)O[C@@H]3CO` [β CD, β-cyclodextrin] here?
Its value is 0.2 Wt. %.
